In patent publication US11253524B2 (Gilead Sciences, Inc., priority 2018, dated 2022):
For at least one compound, name, drawing or mass did not settle the structure.

Target: T1, OATP2B1 (Homo sapiens, UniProt O94956)
T1 construct: expressed in transfected cells; host or cells: MDCKII cells
T1 sequence (O94956 1-709): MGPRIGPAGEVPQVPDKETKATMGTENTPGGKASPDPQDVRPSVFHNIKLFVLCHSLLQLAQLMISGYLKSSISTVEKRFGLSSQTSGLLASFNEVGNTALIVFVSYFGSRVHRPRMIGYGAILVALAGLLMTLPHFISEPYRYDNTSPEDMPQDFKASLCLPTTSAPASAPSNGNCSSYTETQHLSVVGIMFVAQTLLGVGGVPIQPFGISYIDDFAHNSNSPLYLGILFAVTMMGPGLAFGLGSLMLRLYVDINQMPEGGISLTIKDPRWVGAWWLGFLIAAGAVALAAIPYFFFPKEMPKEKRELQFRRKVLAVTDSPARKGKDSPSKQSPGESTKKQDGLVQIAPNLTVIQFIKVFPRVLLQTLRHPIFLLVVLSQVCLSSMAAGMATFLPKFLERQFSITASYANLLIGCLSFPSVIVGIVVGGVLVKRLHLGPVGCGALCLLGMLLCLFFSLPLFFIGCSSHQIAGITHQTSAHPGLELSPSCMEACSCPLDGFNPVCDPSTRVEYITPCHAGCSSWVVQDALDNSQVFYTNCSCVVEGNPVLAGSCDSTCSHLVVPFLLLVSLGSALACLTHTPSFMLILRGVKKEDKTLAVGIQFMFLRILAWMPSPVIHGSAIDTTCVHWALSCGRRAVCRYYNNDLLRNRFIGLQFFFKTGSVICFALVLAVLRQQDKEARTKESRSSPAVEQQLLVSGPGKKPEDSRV
Assay: OATP2B1 inhibition assay, 3H-E3S uptake, MDCKII cells
Format: cell-based
Details: at 100 μM
Protocol: MDCKII-Mock and OATP2B1-transfected cells (1×10^5 cells each) were seeded 24 hr prior to assay. Pre-rinsed cells were incubated for 2 minutes with 0.2 μM ^3H-E3S in HK buffer in the presence of various concentrations of test compound or positive control fluvastatin. After the experiment cells were rinsed with Krebs-Henseleit buffer and lysed with 0.1 M NaOH. The amount of substrate inside the cells was determined by liquid scintillation reader.
Percent inhibition was calculated according to the following equation: % inhibition=[1−{[OATP]i−[WT]ni}/{[OATP]ni−[WT]ni}]*100 where: [OATP]i represent the substrate accumulation in the presence of test compound for either OATP1B1, OATP1B3, or OATP2B1 cells; [OATP]ni represents the substrate accumulation in the absence of test compound for either OATP1B1, OATP1B3, or OATP2B1 cells, respectively; and [WT]ni represents the substrate accumulation in the absence of test compound for wild type cells or Mock cells, respectively. IC50 Determination in Transporter Assays
IC50 was determined according to the procedures described in Example 5. […] Results are reported as NIO (no interaction observed).

Compound: O=C(NCc1c(F)cc(F)cc1F)c1cn2c(c(O)c1=O)C(=O)N1[C@H]3CC[C@H](C3)O[C@@H]1C2 [BIC, bictegravir, reference compound]
- Maximum inhibition at highest test conc. (% of control): 17% inhibition at 100 μM
